Laboratory results from publication doi:10.1101/2020.04.30.071365.

Molecular target: T1, BirA*-cyclin F(WT) (human) (UniProt P41002)
T1 sequence: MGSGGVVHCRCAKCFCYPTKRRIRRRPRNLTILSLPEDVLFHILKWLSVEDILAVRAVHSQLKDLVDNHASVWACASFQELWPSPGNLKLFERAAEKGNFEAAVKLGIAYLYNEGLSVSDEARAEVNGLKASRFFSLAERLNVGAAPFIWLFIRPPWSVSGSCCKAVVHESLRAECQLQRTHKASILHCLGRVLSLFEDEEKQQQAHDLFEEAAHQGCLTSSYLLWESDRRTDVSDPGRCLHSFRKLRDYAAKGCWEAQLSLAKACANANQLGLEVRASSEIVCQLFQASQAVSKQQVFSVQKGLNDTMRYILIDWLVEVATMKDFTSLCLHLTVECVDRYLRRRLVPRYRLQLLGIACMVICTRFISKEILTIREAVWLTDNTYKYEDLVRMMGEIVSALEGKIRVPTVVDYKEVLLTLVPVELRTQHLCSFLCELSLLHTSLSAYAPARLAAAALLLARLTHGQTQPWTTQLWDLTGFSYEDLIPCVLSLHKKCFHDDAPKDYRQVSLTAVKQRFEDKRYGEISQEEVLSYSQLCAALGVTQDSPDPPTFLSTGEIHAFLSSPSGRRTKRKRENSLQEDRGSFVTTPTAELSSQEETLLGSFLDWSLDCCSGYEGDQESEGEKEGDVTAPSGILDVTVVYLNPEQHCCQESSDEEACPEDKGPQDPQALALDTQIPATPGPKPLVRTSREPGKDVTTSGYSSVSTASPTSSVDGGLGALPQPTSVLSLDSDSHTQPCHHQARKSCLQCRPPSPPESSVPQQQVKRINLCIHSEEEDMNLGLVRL
Test: proximity labelling

binding: binds
Substance: Casein kinase II (CKII) (enzyme)

No constants are given. Whether binding was seen depends on the method and setting. In cells and extracts the contact can be indirect. Here binding means that the protein was enriched with, or labelled near, the bait; the list need not be complete.
